# Reference: PubChem BioAssay AID1487 (National Center for Advancing Translational Sciences (NCATS), 2009)
# The other results are listed elsewhere or left out. Shown are side measurements of this screen, not its main read-out; they come without a call. Most of these compounds were active or inconclusive in the main read-out, so they are no random draw. Potencies come from curve fits of mixed quality, noted in brackets.
# Test: qHTS Assay for Modulators of Lamin A Splicing
# Conditions: HeLa LMNA splicing GFP/RFP minigene ratio, 48 h
# Outline: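 S3 HeLa stable clones carrying a lamin A-EGFP splicing minigene plus DsRed2 were seeded at 600 cells/well in Opti-MEM with 2% FBS, pin-dosed and incubated 48 h at 37°C. Acumen cytometry (488 nm) gave the GFP/RFP total-intensity ratio.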
# [1] = measured here: GFP splicing reporter channel
# [2] = measured here: RFP viability control channel
structure (smiles),measurement,setting,value
Cc1cccc(-n2nnnc2S(C)(=O)=O)c1,AC50,[1],"1.41 µM [falling, full curve, poor fit]"
same,AC50,[2],"7.94 µM [falling, partial curve, poor fit]"
CCOc1ccc(-c2cc(CCCC(=O)N3CCN(c4ccc(OC)cc4)CC3)no2)cc1,AC50,[1],"11.2 µM [rising, single point]"
same,AC50,[2],"14.1 µM [rising, partial curve]"
CCOC(=O)c1c(CSc2cccs2)n(C)c2cc(Br)c(O)c(CN(C)C)c12,AC50,[2],"0.0112 µM [rising, full curve, poor fit]"
CCOC(=O)/C(=N\Nc1ccccc1)S(=O)(=O)c1ccccc1,AC50,[1],"17.8 µM [rising, single point]"
same,AC50,[2],"31.6 µM [rising, single point]"
O=C(NCCCn1ccnc1)c1cc(-c2cccs2)on1,AC50,[1],"3.98 µM [rising, single point]"
same,AC50,[2],"35.5 µM [falling, single point]"
CCN(CC(=O)Nc1ccc2c(c1)OCCO2)c1nc(-c2cccnc2)nc2ccccc12,AC50,[2],"17.8 µM [rising, partial curve, poor fit]"
O=C1c2ccccc2C(=O)c2c1ncn2-c1ccccc1,AC50,[2],"35.5 µM [rising, single point]"
CCn1c(C)cc(/C=C2/NC(=O)N(c3ccccc3)C2=O)c1C,AC50,[2],"7.08 µM [falling, partial curve, poor fit]"
CC(=O)N1CCCc2cc(S(=O)(=O)N(C)CC(=O)Nc3ccc(Cl)cc3C)ccc21,AC50,[1],"1.58 µM [falling, partial curve, poor fit]"
same,AC50,[2],"0.1 µM [falling, full curve, poor fit]"
CCc1ccc(C(C(=O)NC2CCCC2)N(C(=O)/C=C/C(=O)Nc2cc(C)on2)c2ccccc2C)cc1 (centres undefined),AC50,[1],"25.1 µM [falling, single point]"
same,AC50,[2],"0.00708 µM [rising, full curve, poor fit]"
N=C(N)c1ccc2cc(OC(=O)c3ccc(N=C(N)N)cc3)ccc2c1,AC50,[1],"0.01 µM [falling, full curve, poor fit]"
same,AC50,[2],"0.00891 µM [falling, full curve, poor fit]"
Cc1ccc(-c2noc(CCC(=O)NC3CCCc4ccccc43)n2)cc1 (centres undefined),AC50,[1],"2 µM [rising, partial curve]"
COc1ccc2cc(C3CC(c4cccs4)=NN3S(C)(=O)=O)c(Cl)nc2c1 (centres undefined),AC50,[2],"17.8 µM [rising, single point]"
CN(C)CCNc1nc2c(c(=O)[nH]c(=O)n2C)n1CC(O)COc1ccc(Cl)cc1Cl (centres undefined),AC50,[2],"1.41 µM [rising, partial curve, poor fit]"
Cc1nc2c(C(=O)NC(C)c3ccccc3)cnn2c(C)c1Cc1ccccc1 (centres undefined),AC50,[1],"14.1 µM [falling, partial curve]"
same,AC50,[2],"22.4 µM [falling, partial curve]"
COc1ccccc1CC(=O)Nc1ccc(-c2nnc(-c3ccco3)o2)cc1,AC50,[2],"22.4 µM [rising, single point]"
COc1ccccc1CNC(=O)COC(=O)c1cnccn1,AC50,[2],"0.501 µM [falling, single point]"
CCNc1ncc2nc(-c3cn(C)c4ccccc34)c(=O)n(-c3ccc(OC)cc3)c2n1,AC50,[1],"5.01 µM [falling, partial curve, poor fit]"
same,AC50,[2],"3.98 µM [falling, partial curve, poor fit]"
CCC(=O)Nc1nnc(S(=O)(=O)N2CCc3ccccc32)s1,AC50,[1],"17.8 µM [falling, single point]"
same,AC50,[2],"25.1 µM [falling, partial curve]"
CCOC(=O)c1ccc(NC(=O)Cn2cc(C(=O)c3ccc(Cl)cc3)c(=O)c3ccc(C)nc32)cc1,AC50,[1],"5.62 µM [rising, single point]"
same,AC50,[2],"3.55 µM [rising, partial curve]"
CN(Cc1nc(Cc2ccccc2F)no1)Cc1cccc2ncccc12,AC50,[1],"0.0251 µM [falling, full curve, poor fit]"
same,AC50,[2],"0.0158 µM [falling, full curve, poor fit]"
C(=N/Nc1nc(-c2ccccc2)cc(-c2ccccc2)n1)/c1cccnc1,AC50,[2],"25.1 µM [rising, partial curve, poor fit]"
CN1CCN(c2ncnc3ccc(-c4ccccc4Cl)cc23)CC1,AC50,[1],"11.2 µM [falling, partial curve, poor fit]"
same,AC50,[2],"7.94 µM [falling, partial curve, poor fit]"
COc1cc(C(=O)/C=C/Nc2ccc(NC(C)=O)cc2)cc(OC)c1OC,AC50,[1],"0.178 µM [falling, full curve, poor fit]"
same,AC50,[2],"0.224 µM [falling, full curve, poor fit]"
CCOC(=O)c1sc(=NC(=O)c2ccc(S(=O)(=O)N3CC(C)OC(C)C3)cc2)n(C)c1C (centres undefined),AC50,[1],"3.98 µM [falling, single point]"
same,AC50,[2],"3.98 µM [falling, single point]"
CCCCN(CCCC)CCNC(=O)CSCc1ccc(C)cc1,AC50,[2],"0.141 µM [rising, full curve]"
O=C(O)COc1ccc2c3c(c(=O)oc2c1)CCCC3,AC50,[1],"5.62 µM [rising, single point]"
CCOCCCn1c(SCC(=O)Nc2ccc(OC)cc2OC)nc2ccccc2c1=O,AC50,[1],"2.24 µM [falling, partial curve]"
same,AC50,[2],"1.26 µM [falling, partial curve]"
COc1cc(/C=C2\SC(=S)NC2=O)ccc1OS(=O)(=O)c1ccccc1,AC50,[1],"11.2 µM [rising, single point]"
same,AC50,[2],"20 µM [rising, single point]"
CC1CCN(c2ncnc3c2cnn3Cc2ccc(Cl)cc2)CC1,AC50,[1],"31.6 µM [rising, single point]"
same,AC50,[2],"31.6 µM [rising, single point]"
Cc1cccc(-n2c(O)c(C=Nc3ccc(O)cc3)c3ccccc3c2=O)n1,AC50,[1],"11.2 µM [rising, partial curve]"
same,AC50,[2],"10 µM [rising, partial curve]"
CCOC(=O)C1(Cc2ccc(Cl)cc2)CCN(C(=O)c2sc(C)nc2C)CC1,AC50,[1],"2.51 µM [falling, full curve]"
same,AC50,[2],"3.98 µM [falling, full curve]"
Cc1ccc(-c2nc3s/c(=C\c4ccco4)c(=O)n3n2)cc1,AC50,[2],"0.794 µM [rising, full curve, poor fit]"
CCOC(=O)N1CCN(Cc2nc(Cc3cccc(F)c3)no2)CC1,AC50,[1],"0.355 µM [falling, partial curve, poor fit]"
same,AC50,[2],"0.501 µM [falling, single point]"
O=C(CSc1n[nH]c(-c2ccncc2)n1)c1ccccc1,AC50,[2],"15.8 µM [rising, partial curve]"
O=C(Nc1cc(Cl)ccc1O)c1cc2n(n1)C(C(F)(F)F)CC(c1ccc3c(c1)OCO3)N2 (centres undefined),AC50,[2],"3.98 µM [rising, partial curve]"
S=C(NCCC1=CCCCC1)NCc1ccco1,AC50,[2],"2.24 µM [rising, partial curve]"
COc1ccc(NC(=O)C(c2ccc(OC)cc2)N(C)C(=O)CC2NC(=O)NC2=O)cc1 (centres undefined),AC50,[2],"3.98 µM [rising, single point]"
Nc1ccccc1NC1CCCCC1,AC50,[1],"35.5 µM [falling, single point]"
COc1ccc(OC)c(NS(=O)(=O)c2ccc(N3CCCC3=O)cc2)c1,AC50,[1],"11.2 µM [rising, single point]"
CCCC(=O)Nc1nc(-c2ccc3c(c2)OCCO3)cs1,AC50,[2],"14.1 µM [rising, single point]"
COc1ccc(OCCSc2nnc(-c3ccoc3C)n2C)cc1,AC50,[1],"22.4 µM [rising, single point]"
same,AC50,[2],"31.6 µM [rising, single point]"
Cc1ccccc1-n1c(SCC(=O)c2c(N)n(C)c(=O)n(C)c2=O)nc2sc3c(c2c1=O)CCCC3,AC50,[2],"3.98 µM [rising, single point]"
CCOc1ccc(NC(C)C(=O)N/N=C/c2cccs2)cc1 (centres undefined),AC50,[1],"17.8 µM [rising, single point]"
same,AC50,[2],"10 µM [rising, partial curve]"
CC(=O)NC1=NN(C(C)=O)C(C)(c2cccs2)S1 (centres undefined),AC50,[2],"6.31 µM [rising, full curve]"
COCc1ccc(CN2CCc3c([nH]c4ccccc34)C2C(C)(C)C)o1 (centres undefined),AC50,[1],"35.5 µM [rising, single point]"
same,AC50,[2],"20 µM [rising, single point]"
COc1ccc(NC(=O)Nc2ccc(C(C)C)cc2)cc1,AC50,[1],"35.5 µM [falling, single point]"
CS(=O)(=O)CCCCN=C=S,AC50,[1],"5.01 µM [falling, partial curve]"
same,AC50,[2],"12.6 µM [falling, partial curve]"
CCOc1ccc(Oc2ccc(C(F)(F)F)cc2N)cc1,AC50,[2],"7.08 µM [rising, partial curve, poor fit]"
O=C(c1cc(-c2ccccc2)on1)N1CCN(Cc2ccc3c(c2)OCO3)CC1,AC50,[1],"22.4 µM [rising, single point]"
same,AC50,[2],"35.5 µM [rising, single point]"
Cc1onc(-c2ccccc2Cl)c1C(=O)N(C)C1CCCCC1,AC50,[2],"35.5 µM [rising, single point]"
CC(C)c1ccc(NC(=O)CSc2nc(=O)n(Cc3cccnc3)c3c2CCC3)cc1,AC50,[1],"20 µM [falling, partial curve, poor fit]"
CCCCN(CCCC)CCNC(=O)c1cc(=O)[nH]c2ccc(S(=O)(=O)N3CCCCCC3)cc12,AC50,[1],"0.794 µM [falling, full curve, poor fit]"

# As a working copy, part of the list above:
structure (smiles),measurement,setting,value
CCNc1ncc2nc(-c3cn(C)c4ccccc34)c(=O)n(-c3ccc(OC)cc3)c2n1,AC50,[2],"3.98 µM [falling, partial curve, poor fit]"
CCC(=O)Nc1nnc(S(=O)(=O)N2CCc3ccccc32)s1,AC50,[1],"17.8 µM [falling, single point]"
same,AC50,[2],"25.1 µM [falling, partial curve]"
CCOC(=O)c1ccc(NC(=O)Cn2cc(C(=O)c3ccc(Cl)cc3)c(=O)c3ccc(C)nc32)cc1,AC50,[1],"5.62 µM [rising, single point]"
same,AC50,[2],"3.55 µM [rising, partial curve]"
